These are yes or no findings as the source states them, for the method shown. Some results given as binding are weak or reduced against the parent protein; the word gives no strength.
Molecular target: T1, human serum albumin (HSA) (human, UniProt P02768 25-609)
T1 construct: also called full HSA protein
Assay: Biacore SPR

The chains behind the UniProt entries cited, without tags or fusion partners. Residues count along the entry.
UniProt P02768, residues 25-609: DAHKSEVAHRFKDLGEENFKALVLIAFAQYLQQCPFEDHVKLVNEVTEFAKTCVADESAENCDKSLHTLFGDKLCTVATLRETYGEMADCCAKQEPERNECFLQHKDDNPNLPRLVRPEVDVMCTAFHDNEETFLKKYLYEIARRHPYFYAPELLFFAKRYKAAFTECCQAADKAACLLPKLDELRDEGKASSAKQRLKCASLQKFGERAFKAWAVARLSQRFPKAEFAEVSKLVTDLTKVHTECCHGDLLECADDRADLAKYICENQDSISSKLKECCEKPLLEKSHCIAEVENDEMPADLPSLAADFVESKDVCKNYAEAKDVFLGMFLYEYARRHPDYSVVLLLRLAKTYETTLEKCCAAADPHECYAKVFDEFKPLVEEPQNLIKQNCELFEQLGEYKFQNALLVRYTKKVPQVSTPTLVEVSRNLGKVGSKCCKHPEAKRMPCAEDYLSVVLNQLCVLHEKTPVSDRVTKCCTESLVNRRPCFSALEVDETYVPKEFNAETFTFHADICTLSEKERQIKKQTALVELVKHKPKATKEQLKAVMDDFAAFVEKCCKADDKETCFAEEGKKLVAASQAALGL

In the case of DTAVYYCAKYPHYYGSSHWYF [BEV Peptide 1 (bevacizumab variable peptide 1)], the binding is reported as “binds”.

From patent US20210267930A1, “MODIFIED ANTIBODY-ALBUMIN NANOPARTICLE COMPLEXES FOR CANCER TREATMENT” (Mayo Foundation for Medical Education and Research, priority 2016, published 2021)
